Results are given in words; binding and its absence hold for the method and conditions named. In cells and extracts the contact can be indirect. Some binding calls cover weakened binding; strength is not graded here. For some of these results: Where a sequence is shown, tags or fusion partners need not be part of it.
Tests used:
p300-Myc = p300-Myc (UniProt Q09472); assay: co-IP; HEK293T cells cotransfected with tagged expression plasmids for 24 h; lysed in RIPA buffer on ice 30 min; 3 μg anti-tag MAb or nonspecific IgG at 4°C overnight, protein A/G plus agarose 4 h; SDS-PAGE and WB; in some panels gp110-HA or vector was coexpressed and cells were treated with SeV (100 HAU/mL, 16 h), CHX (50 μg/mL) and/or MG132 (20 μM, 4 h)
CBP-Flag = CBP-Flag (UniProt Q92793); assay: as above
IKKi-Myc = target: T1, IKKi-Myc (UniProt Q14164); assay: as above
T1 sequence: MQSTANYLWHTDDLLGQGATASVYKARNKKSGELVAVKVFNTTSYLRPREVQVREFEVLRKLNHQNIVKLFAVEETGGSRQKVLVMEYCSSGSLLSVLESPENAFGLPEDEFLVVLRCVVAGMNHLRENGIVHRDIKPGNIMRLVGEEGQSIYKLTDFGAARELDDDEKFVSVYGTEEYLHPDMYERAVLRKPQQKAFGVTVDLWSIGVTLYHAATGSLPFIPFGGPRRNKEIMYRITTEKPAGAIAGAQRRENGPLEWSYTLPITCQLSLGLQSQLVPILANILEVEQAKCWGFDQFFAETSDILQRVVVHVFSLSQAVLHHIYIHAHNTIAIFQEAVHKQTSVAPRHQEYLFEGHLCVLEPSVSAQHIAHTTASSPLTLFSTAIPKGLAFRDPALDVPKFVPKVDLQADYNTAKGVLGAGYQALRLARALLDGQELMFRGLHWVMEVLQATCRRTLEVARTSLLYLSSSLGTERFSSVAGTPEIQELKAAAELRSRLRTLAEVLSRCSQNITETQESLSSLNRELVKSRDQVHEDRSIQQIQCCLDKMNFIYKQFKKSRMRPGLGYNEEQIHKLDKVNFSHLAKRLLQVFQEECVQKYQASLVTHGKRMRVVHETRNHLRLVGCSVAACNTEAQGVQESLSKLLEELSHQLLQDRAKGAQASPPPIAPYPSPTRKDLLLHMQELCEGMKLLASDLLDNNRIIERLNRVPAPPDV

Sequences of proteins named here, by UniProt entry; tags and fusion partners are left off.
UniProt Q09472: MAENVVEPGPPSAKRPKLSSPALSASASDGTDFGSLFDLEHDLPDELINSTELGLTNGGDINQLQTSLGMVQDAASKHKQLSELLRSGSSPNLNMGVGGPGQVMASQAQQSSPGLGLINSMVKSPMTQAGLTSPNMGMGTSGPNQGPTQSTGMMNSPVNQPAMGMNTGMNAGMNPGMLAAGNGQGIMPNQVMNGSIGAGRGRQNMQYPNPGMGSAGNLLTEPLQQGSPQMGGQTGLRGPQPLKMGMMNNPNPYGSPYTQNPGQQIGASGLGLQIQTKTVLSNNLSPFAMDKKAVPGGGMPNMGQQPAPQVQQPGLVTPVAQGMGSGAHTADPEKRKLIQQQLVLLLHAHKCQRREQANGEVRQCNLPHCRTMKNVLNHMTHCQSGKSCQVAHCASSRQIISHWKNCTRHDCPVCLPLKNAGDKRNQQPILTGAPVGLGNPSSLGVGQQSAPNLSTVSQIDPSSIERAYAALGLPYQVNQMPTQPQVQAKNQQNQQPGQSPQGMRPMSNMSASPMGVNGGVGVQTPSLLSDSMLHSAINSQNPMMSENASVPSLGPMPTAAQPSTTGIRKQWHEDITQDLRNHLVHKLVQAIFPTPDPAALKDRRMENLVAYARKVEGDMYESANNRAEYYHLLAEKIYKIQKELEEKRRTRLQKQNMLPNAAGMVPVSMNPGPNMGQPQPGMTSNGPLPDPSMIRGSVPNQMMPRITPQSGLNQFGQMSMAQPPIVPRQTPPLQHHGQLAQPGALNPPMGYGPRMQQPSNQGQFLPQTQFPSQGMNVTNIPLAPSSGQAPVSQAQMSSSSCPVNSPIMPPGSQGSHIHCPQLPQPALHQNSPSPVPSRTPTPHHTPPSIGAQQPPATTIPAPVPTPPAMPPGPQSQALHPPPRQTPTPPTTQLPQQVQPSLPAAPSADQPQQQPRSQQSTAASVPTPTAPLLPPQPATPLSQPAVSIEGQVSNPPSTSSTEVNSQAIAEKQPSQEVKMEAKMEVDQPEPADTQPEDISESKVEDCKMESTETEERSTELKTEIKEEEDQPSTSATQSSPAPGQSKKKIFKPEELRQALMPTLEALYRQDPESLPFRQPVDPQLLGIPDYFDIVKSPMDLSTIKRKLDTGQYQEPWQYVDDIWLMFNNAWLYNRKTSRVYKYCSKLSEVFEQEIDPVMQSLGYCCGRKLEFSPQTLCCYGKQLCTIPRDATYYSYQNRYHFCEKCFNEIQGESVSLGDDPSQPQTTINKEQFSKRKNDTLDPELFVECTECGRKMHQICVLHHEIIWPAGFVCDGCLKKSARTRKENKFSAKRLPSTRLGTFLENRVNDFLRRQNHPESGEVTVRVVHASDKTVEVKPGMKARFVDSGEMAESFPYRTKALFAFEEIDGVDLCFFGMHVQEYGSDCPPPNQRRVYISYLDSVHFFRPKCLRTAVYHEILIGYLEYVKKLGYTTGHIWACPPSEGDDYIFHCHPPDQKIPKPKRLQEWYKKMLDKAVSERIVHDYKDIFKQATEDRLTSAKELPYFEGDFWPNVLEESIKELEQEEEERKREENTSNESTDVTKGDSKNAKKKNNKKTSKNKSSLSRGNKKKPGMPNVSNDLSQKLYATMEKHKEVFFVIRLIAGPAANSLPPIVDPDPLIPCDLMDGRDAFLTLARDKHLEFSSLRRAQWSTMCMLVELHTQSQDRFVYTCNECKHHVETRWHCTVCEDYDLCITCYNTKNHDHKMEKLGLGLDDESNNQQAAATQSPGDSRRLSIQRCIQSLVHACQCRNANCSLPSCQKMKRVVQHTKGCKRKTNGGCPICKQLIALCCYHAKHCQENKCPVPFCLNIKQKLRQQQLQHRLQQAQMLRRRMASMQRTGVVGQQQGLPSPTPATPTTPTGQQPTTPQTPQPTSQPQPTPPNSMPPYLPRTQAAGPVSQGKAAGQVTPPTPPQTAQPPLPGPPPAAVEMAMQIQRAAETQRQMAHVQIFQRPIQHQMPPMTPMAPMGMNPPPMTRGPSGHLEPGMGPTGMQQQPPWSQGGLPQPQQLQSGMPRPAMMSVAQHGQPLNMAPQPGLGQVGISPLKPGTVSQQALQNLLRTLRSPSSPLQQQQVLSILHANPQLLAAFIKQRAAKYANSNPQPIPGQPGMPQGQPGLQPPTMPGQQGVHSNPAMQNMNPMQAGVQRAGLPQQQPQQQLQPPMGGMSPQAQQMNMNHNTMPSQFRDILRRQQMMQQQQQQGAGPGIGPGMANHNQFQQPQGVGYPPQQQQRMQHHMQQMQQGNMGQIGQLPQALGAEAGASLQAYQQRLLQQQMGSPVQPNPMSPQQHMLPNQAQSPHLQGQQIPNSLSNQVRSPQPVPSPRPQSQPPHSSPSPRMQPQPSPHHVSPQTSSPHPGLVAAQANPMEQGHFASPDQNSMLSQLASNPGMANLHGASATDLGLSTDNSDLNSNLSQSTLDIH
UniProt Q92793: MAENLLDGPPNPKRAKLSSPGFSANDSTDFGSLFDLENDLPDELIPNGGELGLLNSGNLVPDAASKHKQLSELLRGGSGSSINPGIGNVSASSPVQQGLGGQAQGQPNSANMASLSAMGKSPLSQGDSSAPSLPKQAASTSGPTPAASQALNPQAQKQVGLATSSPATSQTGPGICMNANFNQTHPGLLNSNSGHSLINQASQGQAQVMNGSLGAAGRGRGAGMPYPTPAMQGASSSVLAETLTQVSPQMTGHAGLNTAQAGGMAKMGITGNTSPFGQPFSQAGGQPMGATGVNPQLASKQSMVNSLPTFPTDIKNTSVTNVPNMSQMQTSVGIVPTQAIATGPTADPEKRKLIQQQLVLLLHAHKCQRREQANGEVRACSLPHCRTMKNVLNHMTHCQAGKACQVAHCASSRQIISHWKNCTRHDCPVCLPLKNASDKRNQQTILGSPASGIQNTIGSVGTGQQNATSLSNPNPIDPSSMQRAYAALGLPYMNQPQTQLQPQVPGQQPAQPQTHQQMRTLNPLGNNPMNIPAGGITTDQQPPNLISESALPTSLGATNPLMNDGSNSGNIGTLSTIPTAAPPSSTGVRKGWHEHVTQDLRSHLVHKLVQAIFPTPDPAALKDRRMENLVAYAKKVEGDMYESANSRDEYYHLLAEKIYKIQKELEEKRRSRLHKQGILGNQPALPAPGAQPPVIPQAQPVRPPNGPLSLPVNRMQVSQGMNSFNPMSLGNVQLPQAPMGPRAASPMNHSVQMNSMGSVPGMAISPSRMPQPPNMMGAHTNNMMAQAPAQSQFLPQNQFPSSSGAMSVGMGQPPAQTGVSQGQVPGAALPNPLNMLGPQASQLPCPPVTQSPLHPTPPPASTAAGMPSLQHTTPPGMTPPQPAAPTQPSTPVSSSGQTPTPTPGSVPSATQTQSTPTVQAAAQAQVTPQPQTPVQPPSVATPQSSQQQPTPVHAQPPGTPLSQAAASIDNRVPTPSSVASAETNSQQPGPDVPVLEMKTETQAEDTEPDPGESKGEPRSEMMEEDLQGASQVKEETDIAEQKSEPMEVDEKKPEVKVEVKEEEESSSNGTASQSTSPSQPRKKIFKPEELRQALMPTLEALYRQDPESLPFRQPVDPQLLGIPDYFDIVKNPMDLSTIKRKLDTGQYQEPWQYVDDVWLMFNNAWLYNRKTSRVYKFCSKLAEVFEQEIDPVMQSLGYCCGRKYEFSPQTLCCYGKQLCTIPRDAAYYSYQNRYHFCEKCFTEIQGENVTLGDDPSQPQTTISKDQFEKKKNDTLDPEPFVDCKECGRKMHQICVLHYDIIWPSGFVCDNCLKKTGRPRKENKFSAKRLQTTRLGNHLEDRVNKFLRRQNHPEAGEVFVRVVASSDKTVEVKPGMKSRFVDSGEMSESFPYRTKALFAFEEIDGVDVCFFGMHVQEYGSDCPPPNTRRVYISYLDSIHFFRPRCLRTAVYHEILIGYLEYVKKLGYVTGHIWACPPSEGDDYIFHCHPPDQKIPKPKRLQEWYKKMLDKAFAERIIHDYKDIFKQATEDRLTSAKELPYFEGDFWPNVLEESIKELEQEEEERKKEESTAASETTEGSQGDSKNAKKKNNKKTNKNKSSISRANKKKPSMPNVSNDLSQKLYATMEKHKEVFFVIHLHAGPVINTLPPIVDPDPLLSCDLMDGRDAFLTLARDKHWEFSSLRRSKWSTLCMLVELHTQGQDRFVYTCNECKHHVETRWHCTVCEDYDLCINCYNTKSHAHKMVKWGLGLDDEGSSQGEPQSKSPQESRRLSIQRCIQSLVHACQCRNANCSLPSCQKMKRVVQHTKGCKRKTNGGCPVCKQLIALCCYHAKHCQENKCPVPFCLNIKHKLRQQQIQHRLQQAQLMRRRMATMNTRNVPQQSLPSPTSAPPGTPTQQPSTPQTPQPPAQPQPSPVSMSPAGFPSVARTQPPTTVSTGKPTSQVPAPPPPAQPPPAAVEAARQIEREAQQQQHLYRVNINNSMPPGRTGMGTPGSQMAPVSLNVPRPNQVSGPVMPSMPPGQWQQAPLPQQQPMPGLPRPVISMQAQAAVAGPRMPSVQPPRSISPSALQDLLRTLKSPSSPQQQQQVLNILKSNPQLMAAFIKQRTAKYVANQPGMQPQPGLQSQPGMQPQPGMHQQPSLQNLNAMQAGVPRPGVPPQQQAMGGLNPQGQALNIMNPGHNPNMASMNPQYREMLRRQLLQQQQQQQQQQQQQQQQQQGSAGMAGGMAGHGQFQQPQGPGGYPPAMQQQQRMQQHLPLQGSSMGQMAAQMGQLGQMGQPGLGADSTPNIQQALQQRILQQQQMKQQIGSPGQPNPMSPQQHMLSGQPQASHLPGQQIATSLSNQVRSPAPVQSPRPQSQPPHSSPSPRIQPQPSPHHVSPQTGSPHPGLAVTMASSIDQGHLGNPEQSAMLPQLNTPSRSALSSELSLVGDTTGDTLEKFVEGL
UniProt Q04206: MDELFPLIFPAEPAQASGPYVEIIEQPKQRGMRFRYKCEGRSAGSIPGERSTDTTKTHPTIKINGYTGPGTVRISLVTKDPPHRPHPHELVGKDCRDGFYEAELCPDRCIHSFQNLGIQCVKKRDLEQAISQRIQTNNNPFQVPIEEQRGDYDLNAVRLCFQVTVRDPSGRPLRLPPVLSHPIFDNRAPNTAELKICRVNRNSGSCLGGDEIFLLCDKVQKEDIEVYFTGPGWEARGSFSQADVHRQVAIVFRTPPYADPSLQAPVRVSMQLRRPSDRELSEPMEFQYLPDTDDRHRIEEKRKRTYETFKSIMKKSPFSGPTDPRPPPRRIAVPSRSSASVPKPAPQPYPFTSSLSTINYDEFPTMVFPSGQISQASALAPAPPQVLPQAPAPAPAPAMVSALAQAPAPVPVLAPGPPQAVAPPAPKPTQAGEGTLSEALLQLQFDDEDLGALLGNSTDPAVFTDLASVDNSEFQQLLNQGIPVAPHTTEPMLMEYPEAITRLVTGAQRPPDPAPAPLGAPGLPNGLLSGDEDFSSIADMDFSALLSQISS
UniProt Q14653: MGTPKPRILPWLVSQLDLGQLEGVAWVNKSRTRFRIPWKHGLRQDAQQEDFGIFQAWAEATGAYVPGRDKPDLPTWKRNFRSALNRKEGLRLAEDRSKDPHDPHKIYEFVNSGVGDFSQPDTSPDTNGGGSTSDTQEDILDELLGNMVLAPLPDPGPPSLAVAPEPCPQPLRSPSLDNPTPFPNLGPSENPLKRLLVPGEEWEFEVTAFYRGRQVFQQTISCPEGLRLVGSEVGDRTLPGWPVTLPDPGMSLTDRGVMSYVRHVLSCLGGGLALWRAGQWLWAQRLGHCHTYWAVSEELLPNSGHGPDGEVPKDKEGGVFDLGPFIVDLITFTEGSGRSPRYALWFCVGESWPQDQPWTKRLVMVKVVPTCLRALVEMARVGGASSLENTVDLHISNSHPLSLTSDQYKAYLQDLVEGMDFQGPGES

[1] = target: endogenous p65 of HEK293T cells (human (endogenous in HEK293T)) (UniProt Q04206); assay: co-IP; HEK293T cells transfected with gp110-HA or vector, infected with or without SeV 100 HAU/mL for 16 h; rabbit anti-p65 pAb; endogenous IKKi and p65 detected by WB

IRF3-Flag (from UniProt Q14653 1-427) was tested, and the binding (p300-Myc) was “binds”.

IRF3-HA (from UniProt Q14653 1-427) was tested, and the binding (CBP-Flag) was “binds”.

p65-Flag (from UniProt Q04206 1-551) was tested, and the binding (IKKi-Myc) was “binds”.

B1: endogenous IKKi of HEK293T cells (protein, UniProt Q14164 1-716)
chain: MQSTANYLWHTDDLLGQGATASVYKARNKKSGELVAVKVFNTTSYLRPREVQVREFEVLRKLNHQNIVKLFAVEETGGSRQKVLVMEYCSSGSLLSVLESPENAFGLPEDEFLVVLRCVVAGMNHLRENGIVHRDIKPGNIMRLVGEEGQSIYKLTDFGAARELDDDEKFVSVYGTEEYLHPDMYERAVLRKPQQKAFGVTVDLWSIGVTLYHAATGSLPFIPFGGPRRNKEIMYRITTEKPAGAIAGAQRRENGPLEWSYTLPITCQLSLGLQSQLVPILANILEVEQAKCWGFDQFFAETSDILQRVVVHVFSLSQAVLHHIYIHAHNTIAIFQEAVHKQTSVAPRHQEYLFEGHLCVLEPSVSAQHIAHTTASSPLTLFSTAIPKGLAFRDPALDVPKFVPKVDLQADYNTAKGVLGAGYQALRLARALLDGQELMFRGLHWVMEVLQATCRRTLEVARTSLLYLSSSLGTERFSSVAGTPEIQELKAAAELRSRLRTLAEVLSRCSQNITETQESLSSLNRELVKSRDQVHEDRSIQQIQCCLDKMNFIYKQFKKSRMRPGLGYNEEQIHKLDKVNFSHLAKRLLQVFQEECVQKYQASLVTHGKRMRVVHETRNHLRLVGCSVAACNTEAQGVQESLSKLLEELSHQLLQDRAKGAQASPPPIAPYPSPTRKDLLLHMQELCEGMKLLASDLLDNNRIIERLNRVPAPPDV
For B1, the binding [1] was “binds”.

Source: PMC10269791
